Source: publication PMC6120060

Sequences of proteins named here, by UniProt entry; tags and fusion partners are left off. A change or cut given only in a name is not applied to a line headed by its entry.
UniProt Q9LUG5: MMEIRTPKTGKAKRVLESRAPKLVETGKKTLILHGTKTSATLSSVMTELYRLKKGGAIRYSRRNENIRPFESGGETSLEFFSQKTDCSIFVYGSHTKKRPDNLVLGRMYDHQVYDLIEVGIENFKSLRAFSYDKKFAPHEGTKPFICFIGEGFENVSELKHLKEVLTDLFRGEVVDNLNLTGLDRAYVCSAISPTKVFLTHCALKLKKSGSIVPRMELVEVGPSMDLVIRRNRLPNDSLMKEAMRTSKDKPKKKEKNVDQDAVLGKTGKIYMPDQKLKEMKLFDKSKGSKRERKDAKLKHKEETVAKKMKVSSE
UniProt Q9SH88: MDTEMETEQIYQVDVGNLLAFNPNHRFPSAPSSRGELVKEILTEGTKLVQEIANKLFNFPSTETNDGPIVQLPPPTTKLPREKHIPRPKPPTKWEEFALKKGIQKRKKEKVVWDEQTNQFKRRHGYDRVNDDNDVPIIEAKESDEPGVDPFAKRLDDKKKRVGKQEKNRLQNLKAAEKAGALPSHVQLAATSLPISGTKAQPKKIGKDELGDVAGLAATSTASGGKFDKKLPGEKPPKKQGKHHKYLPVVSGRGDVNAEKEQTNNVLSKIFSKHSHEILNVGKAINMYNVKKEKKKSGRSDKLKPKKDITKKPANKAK

How the values were obtained:
[1] = molecular target: ARPF2-GFP (GFP-tagged ARPF2) (Arabidopsis thaliana) (UniProt Q9LUG5); assay: co-IP; lysates of N. benthamiana leaves co-infiltrated with ARPF2-GFP and ARRS1-MYC, three days after infection; 25 mM Tris-HCl pH 7.5, 150 mM NaCl, 0.1% NP40, 10% glycerol; precipitated with anti-GFP antibody and protein A agarose; blots with anti-GFP and anti-MYC
[2] = molecular target: ARPF2-nGFP (ARPF2 fused to the N-terminal half of GFP) (Arabidopsis thaliana) (UniProt Q9LUG5); assay: split reporter; split-GFP BiFC; nGFP and cGFP fusions co-expressed in N. benthamiana leaves by co-infiltration, with FIB1-mCherry as nucleolar marker; GFP fluorescence observed by microscopy two or three days after infection

| Substance | binding [1] | binding [2] |
| --- | --- | --- |
| ARRS1-MYC (MYC-tagged ARRS1) (from UniProt Q9SH88) | binds |  |
| ARRS1-cGFP (ARRS1 fused to the C-terminal half of GFP) (from UniProt Q9SH88) |  | binds |

No constants are given. Whether binding was seen depends on the method and setting. Binding seen in cells or lysates may run through a third protein. A result given as binding can be weak or reduced; the word gives no strength.
